Measured values from paper PMC7504102.

Chains of the proteins cited; added tags and fusions are not shown. Lines headed by an entry give the natural chain unless they say otherwise; changes in a name come on top.
UniProt Q96BY9: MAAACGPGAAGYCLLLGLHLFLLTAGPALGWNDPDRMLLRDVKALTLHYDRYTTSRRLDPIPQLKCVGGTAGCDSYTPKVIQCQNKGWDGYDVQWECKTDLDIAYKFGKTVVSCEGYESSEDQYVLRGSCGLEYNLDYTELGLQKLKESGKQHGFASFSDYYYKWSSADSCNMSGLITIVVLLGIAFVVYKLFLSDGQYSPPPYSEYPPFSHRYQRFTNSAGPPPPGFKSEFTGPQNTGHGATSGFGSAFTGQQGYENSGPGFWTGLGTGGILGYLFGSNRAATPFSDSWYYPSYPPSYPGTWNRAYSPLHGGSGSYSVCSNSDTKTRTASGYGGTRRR
UniProt Q96PC5: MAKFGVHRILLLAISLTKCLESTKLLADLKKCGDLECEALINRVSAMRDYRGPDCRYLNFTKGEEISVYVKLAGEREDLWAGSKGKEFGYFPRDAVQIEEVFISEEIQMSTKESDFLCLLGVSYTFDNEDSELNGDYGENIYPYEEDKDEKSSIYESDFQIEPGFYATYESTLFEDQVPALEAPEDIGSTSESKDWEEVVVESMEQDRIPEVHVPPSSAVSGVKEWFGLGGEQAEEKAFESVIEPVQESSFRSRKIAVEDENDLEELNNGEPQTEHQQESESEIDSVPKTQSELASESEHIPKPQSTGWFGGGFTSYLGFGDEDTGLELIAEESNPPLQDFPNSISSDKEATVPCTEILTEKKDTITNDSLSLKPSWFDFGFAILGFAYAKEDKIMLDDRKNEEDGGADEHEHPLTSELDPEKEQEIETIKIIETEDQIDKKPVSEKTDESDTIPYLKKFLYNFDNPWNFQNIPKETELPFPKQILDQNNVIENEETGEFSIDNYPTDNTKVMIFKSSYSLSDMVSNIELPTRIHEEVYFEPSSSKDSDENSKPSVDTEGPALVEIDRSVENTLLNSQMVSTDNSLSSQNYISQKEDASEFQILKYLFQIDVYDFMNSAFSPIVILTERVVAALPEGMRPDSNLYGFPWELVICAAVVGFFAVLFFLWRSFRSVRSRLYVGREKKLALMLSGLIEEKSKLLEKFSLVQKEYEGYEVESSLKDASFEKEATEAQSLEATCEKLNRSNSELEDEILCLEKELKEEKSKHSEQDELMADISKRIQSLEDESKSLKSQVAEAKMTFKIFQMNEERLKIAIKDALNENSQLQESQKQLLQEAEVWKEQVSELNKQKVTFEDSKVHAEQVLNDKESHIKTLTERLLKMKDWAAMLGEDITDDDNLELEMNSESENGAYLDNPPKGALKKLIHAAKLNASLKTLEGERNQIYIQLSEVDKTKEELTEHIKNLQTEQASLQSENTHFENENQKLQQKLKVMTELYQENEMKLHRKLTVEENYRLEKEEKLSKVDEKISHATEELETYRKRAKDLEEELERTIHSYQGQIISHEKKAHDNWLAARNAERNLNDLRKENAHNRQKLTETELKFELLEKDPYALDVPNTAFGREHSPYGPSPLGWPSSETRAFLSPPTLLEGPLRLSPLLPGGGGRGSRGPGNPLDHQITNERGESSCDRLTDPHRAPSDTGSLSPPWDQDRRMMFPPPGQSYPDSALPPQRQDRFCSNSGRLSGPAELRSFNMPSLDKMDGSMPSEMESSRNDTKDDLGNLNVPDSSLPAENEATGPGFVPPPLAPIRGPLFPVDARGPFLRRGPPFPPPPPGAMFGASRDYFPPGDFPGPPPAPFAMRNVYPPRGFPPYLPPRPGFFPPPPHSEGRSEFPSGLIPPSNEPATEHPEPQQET
UniProt O75340: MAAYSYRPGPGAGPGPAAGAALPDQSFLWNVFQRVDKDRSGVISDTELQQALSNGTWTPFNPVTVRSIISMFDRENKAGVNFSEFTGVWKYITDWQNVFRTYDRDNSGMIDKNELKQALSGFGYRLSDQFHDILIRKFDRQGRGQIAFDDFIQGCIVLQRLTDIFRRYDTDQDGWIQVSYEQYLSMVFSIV

Experiments:
[1] = target: StrepHA-SARAF_CytD-SGFP2 Δ1,2 (human) (UniProt Q96BY9); test: pull-down; Strep-pulldown: StrepHA-SARAF_CytD-SGFP2 (WT or mutants) held on Strep-Tactin XT magnetic beads from cleared lysates of HEK293 (endogenous ALG-2) or HEK293 ALG-2KO cells co-expressing FLAG-ALG-2; HKM, 0.2% Nonidet P-40, 10 μM CaCl2, overnight 4 °C; WB with anti-ALG-2 or anti-FLAG
[2] = target: StrepHA-SARAF_CytD-SGFP2 Δ2,3 (human) (UniProt Q96BY9); test: as above
[3] = target: SGFP2-fused cTAGE5 (human) (UniProt Q96PC5); test: far-Western, overlay or dot blot; SGFP2-fused proteins immunoprecipitated with anti-GFP pAb from HEK293 ALG-2KD lysates, resolved and blotted; membrane probed with Nluc-ALG-2; luminescence read in TBS containing 100 μM CaCl2; only the binder purified
[4] = target: SGFP2-fused cTAGE5 (human) (UniProt Q96PC5); test: pull-down; SGFP2-fused proteins held on protein G magnetic beads via anti-GFP pAb; incubated with Nluc-ALG-2 (300 ng/mL) in buffer HKM, 0.2% Nonidet P-40, 0.1% gelatin, 100 μM CaCl2, 2 h, 4 °C; bound luciferase activity relative to Sec31A-p (100%); only the binder purified

Row | binding [1] | binding [2] | binding [3] | binding [4] | Substance
1 | no binding | no binding | – | – | endogenous ALG-2 (from UniProt O75340 1-191)
2 | – | – | binds | binds | nanoluciferase (NanoLuc, Nluc)-fused ALG-2 (from UniProt O75340 1-191)

Results are given in words; binding and its absence hold for the method and conditions named. For some of these results: A result given as binding can be weak or reduced; the word gives no strength. For some of these results: Binding seen in cells or lysates may run through a third protein.
